Results are given in words; binding and its absence hold for the method and conditions named. In cells and extracts the contact can be indirect. Some binding calls cover weakened binding; strength is not graded here.

By UniProt entry, the sequences of proteins in these tests, tags left out.
UniProt P29590: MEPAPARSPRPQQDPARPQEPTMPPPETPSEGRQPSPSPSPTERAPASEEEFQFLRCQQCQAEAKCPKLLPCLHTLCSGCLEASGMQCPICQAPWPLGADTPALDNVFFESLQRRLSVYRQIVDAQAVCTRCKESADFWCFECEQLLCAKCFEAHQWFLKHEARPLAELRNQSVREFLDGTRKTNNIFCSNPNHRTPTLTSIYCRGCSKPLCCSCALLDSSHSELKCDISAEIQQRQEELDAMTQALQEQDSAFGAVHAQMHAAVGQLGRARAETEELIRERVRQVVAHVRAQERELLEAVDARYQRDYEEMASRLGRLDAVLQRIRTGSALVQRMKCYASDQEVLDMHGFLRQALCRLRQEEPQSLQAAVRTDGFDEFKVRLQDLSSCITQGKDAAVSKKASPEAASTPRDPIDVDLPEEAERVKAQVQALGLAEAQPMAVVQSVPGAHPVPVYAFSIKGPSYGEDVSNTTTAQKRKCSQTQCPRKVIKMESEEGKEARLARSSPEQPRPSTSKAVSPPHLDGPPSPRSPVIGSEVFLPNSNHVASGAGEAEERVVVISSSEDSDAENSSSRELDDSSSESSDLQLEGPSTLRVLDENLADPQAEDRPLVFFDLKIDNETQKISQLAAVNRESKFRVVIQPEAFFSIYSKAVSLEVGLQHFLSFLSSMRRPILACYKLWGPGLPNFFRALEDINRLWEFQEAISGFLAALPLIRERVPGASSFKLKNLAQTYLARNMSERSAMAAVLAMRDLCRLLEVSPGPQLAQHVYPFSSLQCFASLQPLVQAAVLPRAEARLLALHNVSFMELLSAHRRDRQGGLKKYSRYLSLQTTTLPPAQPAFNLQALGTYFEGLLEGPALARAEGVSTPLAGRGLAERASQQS
UniProt F5HDE4: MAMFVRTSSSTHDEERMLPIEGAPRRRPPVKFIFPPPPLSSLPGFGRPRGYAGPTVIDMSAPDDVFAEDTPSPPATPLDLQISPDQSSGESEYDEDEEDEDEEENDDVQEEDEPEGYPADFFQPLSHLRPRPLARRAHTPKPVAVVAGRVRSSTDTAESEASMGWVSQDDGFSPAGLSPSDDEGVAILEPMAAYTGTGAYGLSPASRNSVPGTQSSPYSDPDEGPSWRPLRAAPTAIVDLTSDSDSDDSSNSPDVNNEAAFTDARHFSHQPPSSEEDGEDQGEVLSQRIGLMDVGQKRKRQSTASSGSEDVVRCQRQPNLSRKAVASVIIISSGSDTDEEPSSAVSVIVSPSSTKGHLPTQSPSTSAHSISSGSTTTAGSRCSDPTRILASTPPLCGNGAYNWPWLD

Assay [1] has as its target T1, IκB kinase ε (IKKε), endogenous (human (endogenous in SLK-iBAC and BCBL1)) (UniProt Q14164).
T1 sequence: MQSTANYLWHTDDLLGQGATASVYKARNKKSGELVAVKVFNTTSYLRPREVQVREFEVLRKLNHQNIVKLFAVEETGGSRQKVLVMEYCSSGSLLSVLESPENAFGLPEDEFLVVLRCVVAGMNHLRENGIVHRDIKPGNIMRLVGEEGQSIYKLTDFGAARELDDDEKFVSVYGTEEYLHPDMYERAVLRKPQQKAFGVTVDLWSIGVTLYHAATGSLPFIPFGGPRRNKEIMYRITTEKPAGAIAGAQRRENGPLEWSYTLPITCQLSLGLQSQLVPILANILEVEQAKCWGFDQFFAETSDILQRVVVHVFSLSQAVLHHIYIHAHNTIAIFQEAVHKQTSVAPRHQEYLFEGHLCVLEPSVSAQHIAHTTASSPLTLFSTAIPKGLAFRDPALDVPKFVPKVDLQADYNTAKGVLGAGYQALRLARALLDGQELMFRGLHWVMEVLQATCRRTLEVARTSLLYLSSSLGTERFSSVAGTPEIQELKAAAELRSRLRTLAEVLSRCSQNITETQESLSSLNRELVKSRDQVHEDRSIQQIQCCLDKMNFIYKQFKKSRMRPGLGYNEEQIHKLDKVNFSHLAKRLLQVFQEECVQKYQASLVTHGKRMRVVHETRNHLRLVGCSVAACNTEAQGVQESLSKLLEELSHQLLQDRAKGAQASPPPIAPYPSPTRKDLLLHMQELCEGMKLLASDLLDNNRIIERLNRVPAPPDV
Briefly: co-IP; endogenous proteins; lysates of SLK-iBAC cells (with or without Dox/NaB, 48 h) or BCBL1 cells (with or without TPA, 72 h); IP and IB with indicated antibodies.

The target of another assay is IKKε amino acid 300–500 (UniProt Q14164). Briefly: co-IP; HEK293T co-transfected with indicated plasmids (with or without ORF45 co-expressed), lysed 48 h after transfection in 50 mM Tris-HCl pH 7.4, 150 mM NaCl, 1% NP-40, 1 mM EDTA, 10% glycerol; anti-Flag M2 agarose, 4 h at 4°C.
A further assay deals with IKKε amino acid 500–716 (UniProt Q14164). The assay is described as above.
The next assay deals with PML, transfected (UniProt P29590). The description is as above.
Assay [2] deals with PML, endogenous (human (endogenous in SLK-iBAC and BCBL1)) (UniProt P29590). Briefly: co-IP; endogenous proteins; lysates of SLK-iBAC cells (with or without Dox/NaB, 48 h) or BCBL1 cells (with or without TPA, 72 h); IP and IB with indicated antibodies.

For “KSHV ORF45, expressed from the viral genome during lytic replication (from UniProt F5HDE4 1-407)”, in assay [1], the binding result is given as “binds”.

In the case of “KSHV ORF45, transfected (from UniProt F5HDE4 1-407)”, the binding entry with IKKε amino acid 300–500 and with IKKε amino acid 500–716 was “binds” in each case.

B1: wild-type IKKε, transfected (protein, UniProt Q14164 1-716)
chain: T1 sequence
As for B1, the binding entry in the assay with PML, transfected is listed as “binds”.

B2: IκB kinase ε (IKKε), endogenous (protein, UniProt Q14164 1-716)
chain: T1 sequence
On to B2, for which the binding entry in assay [2] is “binds”.

The values above are taken from PMC11781660.
